Measured values as given in PubChem BioAssay AID540276 (National Center for Advancing Translational Sciences (NCATS), 2011).
Out of some 300,000 compounds screened, about 5,400 (1.8%) were called active. The shares of active, inactive and inconclusive entries below differ from those in the screen. The call rests on the fitted dose curve; tested in HEK293 cells. Potencies of inconclusive entries are doubtful fits and often do not repeat.

assay: qHTS for inhibitors of binding or entry into cells for Marburg Virus; settings: Marburg virus pseudotyped entry inhibition, cell reporter; series mostly up to 37.8 µM
Potency means the concentration at half of the fitted maximal effect.

Question: With `O=P(O)(CCc1ccccn1)CN1CCOCC1` as the compound, how does the Potency read?
Answer: The Potency was “inactive”.

Question: For `COC(Cn1cc(C)c(=O)[nH]c1=O)OC`, which Potency is on record?
Answer: Its Potency is “inactive”.

Question: Which Potency does the source give for `Cc1ccc(N2CCN(S(=O)(=O)N3CCOCC3)CC2)cc1C` here?
Answer: The Potency was “inactive”.

Question: With `CCOC(=O)c1cc[n+](CC(=O)c2ccc(F)cc2)cc1` as the compound, how does the Potency read?
Answer: Its Potency is inconclusive: 3.16 µM [activator, single point].

Question: For `CC(=O)c1c(Cl)nc2cccc3c2c1-c1ccccc1C3=O`, which Potency is on record?
Answer: The Potency was “inactive”.

Question: With `COc1ccc(C(=O)N/C(=C\c2cn(C)c3ccccc23)C(=O)OCCN(C)C)cc1` as the compound, how does the Potency read?
Answer: The Potency was inconclusive: 3.55 µM [inhibitor, full curve, poor fit].

Question: For `CCOC(=O)c1cccc(NC(=O)CCS(=O)(=O)c2ccc3c(c2)CCN3C(=O)CC)c1`, which Potency is on record?
Answer: Its Potency is “inactive”.

Question: Which Potency does the source give for `O=C(c1ccc(Cl)cc1)n1nc(-c2cccnc2)nc1NCc1ccc(F)cc1` here?
Answer: The Potency was inconclusive: 6.31 µM [inhibitor, single point].

Question: For `CCOc1ccc2nc(NC(=O)C(NS(=O)(=O)c3cccs3)C(C)C)sc2c1` (centres undefined), which Potency is on record?
Answer: Its Potency is inconclusive: 9.2 µM [inhibitor, partial curve].

Question: For `COc1ccc(N2CCN(Cc3nc4c(c(=O)[nH]c(=O)n4C)n3CCCc3ccccc3)CC2)cc1`, which Potency is on record?
Answer: The Potency was “inactive”.

Question: With `O=C(NCc1ccccc1)c1noc2c1CCCCC2` as the compound, how does the Potency read?
Answer: The Potency was inconclusive: 6.51 µM [inhibitor, single point].

Question: Which Potency does the source give for `C=CCOn1c(C)c(C(C)=O)c2c3nonc3ccc21` here?
Answer: The Potency was “inactive”.

Question: For `COc1ccccc1C(=O)Nc1cccc(Oc2c(F)c(F)c(F)c(F)c2F)c1`, which Potency is on record?
Answer: The Potency was “inactive”.

Question: With `Cc1ccc2c(c1)N(C(=O)CCC(=O)NCc1cccc(F)c1)CC(C)O2` (centres undefined) as the compound, how does the Potency read?
Answer: The Potency was “inactive”.

Question: For `O=C(NC1CCCC1)c1ccccc1-c1nc2ccccc2[nH]1`, which Potency is on record?
Answer: Its Potency is “inactive”.

Question: For `CCOc1cccc2sc(N(CCCN(C)C)C(=O)c3ccc(S(=O)(=O)N(CC)Cc4ccccc4)cc3)nc12`, which Potency is on record?
Answer: The Potency was inconclusive: 14.1 µM [inhibitor, partial curve, poor fit].

Question: With `COc1ccc(CC(=O)Nc2nc3c(s2)CCCC3)cc1` as the compound, how does the Potency read?
Answer: The Potency was active: 2.51 µM.

Question: With `CC(=NNC(=S)Nc1ccccc1Cl)c1ccccn1` as the compound, how does the Potency read?
Answer: The Potency was inconclusive: 0.1 µM [inhibitor, full curve, poor fit].

Question: Which Potency does the source give for `Cc1nnc(SCC(=O)N2CCC(c3noc4ccc(F)cc34)CC2)s1` here?
Answer: The Potency was “inactive”.

Question: With `CCCOc1ccc(C(=O)CCNc2cccc(Cl)c2)cc1` as the compound, how does the Potency read?
Answer: Its Potency is inconclusive: 1 µM [activator, full curve, poor fit].

Question: With `CCCCCCCCn1ccc(=N)cc1` as the compound, how does the Potency read?
Answer: The Potency was inconclusive: 7.94 µM [inhibitor, partial curve, poor fit].

Question: Which Potency does the source give for `CC(C)(C)n1ncc2c(=O)n(CC(=O)NCc3ccccc3Cl)cnc21` here?
Answer: Its Potency is inconclusive: 35.5 µM [inhibitor, single point].

Question: For `CCN(CC)c1ccc(C(=O)OCC(=O)Nc2ncccn2)cc1`, which Potency is on record?
Answer: The Potency was inconclusive: 3.98 µM [activator, single point].

Question: For `Clc1ccc(Cn2cc(/C=N/n3cnnc3)c3ccccc32)c(Cl)c1`, which Potency is on record?
Answer: The Potency was inconclusive: 17.8 µM [inhibitor, partial curve, poor fit].

Question: With `CCN1CCN(Cc2c(O)ccc3oc(C)c(C(=O)Nc4cccc(C(F)(F)F)c4)c23)CC1` as the compound, how does the Potency read?
Answer: The Potency was inconclusive: 10 µM [inhibitor, partial curve, poor fit].

Question: For `CCn1c(COc2ccccc2C)nnc1SCC(=O)OC`, which Potency is on record?
Answer: Its Potency is inconclusive: 14.6 µM [activator, partial curve, poor fit].

Question: Which Potency does the source give for `COCCC(=O)NC12CC3CC(CC(C3)C1)C2` here?
Answer: The Potency was “inactive”.

Question: Which Potency does the source give for `O=C(N/N=C/c1cc2c(cc1Cl)OCO2)c1cc(-c2ccccc2)n[nH]1` here?
Answer: Its Potency is “inactive”.

Question: For `Cc1cc(O)cc(O)c1C(=O)Cc1cnn(-c2ccccc2)c1`, which Potency is on record?
Answer: Its Potency is “inactive”.

Question: With `Cc1cc(C(=O)N/N=C/c2sc(N3CCOCC3)nc2-c2ccccc2)c(C)o1` as the compound, how does the Potency read?
Answer: The Potency was inconclusive: 3.98 µM [inhibitor, partial curve, poor fit].

Question: With `COc1ccc(-c2csc3ncnc(NCCCO)c23)cc1` as the compound, how does the Potency read?
Answer: The Potency was inconclusive: 10 µM [inhibitor, partial curve, poor fit].

Question: Which Potency does the source give for `CC1(C)CC(=O)c2cnc(NC(=O)Cc3ccc(Cl)cc3)nc2C1` here?
Answer: Its Potency is inconclusive: 0.562 µM [activator, full curve, poor fit].

Question: With `CC(C)(C)c1csc(NC(=O)c2ccccc2O)n1` as the compound, how does the Potency read?
Answer: Its Potency is active: 11.2 µM.

Question: Which Potency does the source give for `O=C(Cc1c[nH]c2ccccc12)NCc1ccc2c(c1)OCO2` here?
Answer: The Potency was “inactive”.

Question: For `O=C(CNC(=O)c1ccccc1)OCC(=O)c1ccccc1Cl`, which Potency is on record?
Answer: The Potency was inconclusive: 5.62 µM [activator, single point].

Question: Which Potency does the source give for `COc1ccc(OC)c(NC(=O)CCc2c[nH]c3ccccc23)c1` here?
Answer: The Potency was inconclusive: 0.562 µM [inhibitor, full curve, poor fit].

Question: For `Cn1c(=O)c2c(ncn2CC(COCc2ccccc2Cl)OCc2ccccc2Cl)n(C)c1=O` (centres undefined), which Potency is on record?
Answer: Its Potency is inconclusive: 32.6 µM [inhibitor, partial curve, poor fit].

Question: Which Potency does the source give for `O=C(COc1ccccc1[N+](=O)[O-])N/N=C/c1cccs1` here?
Answer: The Potency was inconclusive: 14.1 µM [activator, single point].

Question: Which Potency does the source give for `Cc1cc(C)c2c(c1)c(C)cc1nnc(SCC(=O)c3ccccc3)n12` here?
Answer: Its Potency is “inactive”.

Question: With `CCOC(=O)CCN1C(=O)[C@@H]2[C@H]3[C@H](O)[C@H](O)CC(=NNC(=O)OCc4ccccc4)[C@H]3CC[C@H]2C1=O` as the compound, how does the Potency read?
Answer: The Potency was inconclusive: 12.5 µM [activator, partial curve].

Question: For `CCN(CC(O)Cn1c2ccccc2c2ccccc21)S(=O)(=O)c1ccc(C)cc1` (centres undefined), which Potency is on record?
Answer: The Potency was inconclusive: 20.6 µM [inhibitor, partial curve, poor fit].

Question: For `COc1cc2c(cc1OC)CN(C(C)C(=O)Nc1cccc(S(=O)(=O)N3CCOCC3)c1)CC2` (centres undefined), which Potency is on record?
Answer: The Potency was “inactive”.

Question: For `COc1ccc(CNC(=O)C2(c3ccc(Cl)cc3)CC2)cc1`, which Potency is on record?
Answer: The Potency was inconclusive: 17.8 µM [inhibitor, partial curve, poor fit].

Question: With `C=C(CO[C@@H]1C=C[C@@H](c2ccccc2)O[C@@H]1CO)c1ccccc1` as the compound, how does the Potency read?
Answer: Its Potency is “inactive”.

Question: Which Potency does the source give for `CCCCCn1c(SCC(=O)c2ccccc2)nc2cc(C(=O)NCc3ccco3)ccc2c1=O` here?
Answer: The Potency was inconclusive: 11.6 µM [activator, partial curve, poor fit].

Question: With `CCOc1ccc(-c2nnc(-c3cccs3)o2)cc1` as the compound, how does the Potency read?
Answer: Its Potency is inconclusive: 18.3 µM [inhibitor, single point].

Question: With `C=CCC(CC)C(=O)NC(=O)N1CCCc2ccccc21` (centres undefined) as the compound, how does the Potency read?
Answer: The Potency was inconclusive: 3.98 µM [activator, single point].

Question: For `COC(=O)c1ccccc1NC(=O)c1ccccc1N(C)S(=O)(=O)c1ccccc1`, which Potency is on record?
Answer: The Potency was “inactive”.

Question: Which Potency does the source give for `COc1cccc(NC(=O)Nc2ccc3c(c2)N(C)C(=O)c2ccccc2S3)c1` here?
Answer: Its Potency is inconclusive: 35.5 µM [inhibitor, partial curve, poor fit].

Question: Which Potency does the source give for `O=C(CCN1CCCCCC1)Nc1ccc(F)cc1` here?
Answer: The Potency was inconclusive: 16.4 µM [inhibitor, single point].

Question: Which Potency does the source give for `c1ccc(CN2CCN(c3nc(-c4ccccc4)nc(-n4ccnc4)n3)CC2)cc1` here?
Answer: Its Potency is inconclusive: 29.1 µM [inhibitor, single point].

Question: Which Potency does the source give for `CCOc1ccc(-c2nnc(SCC(=O)Nc3cccc(C#N)c3)o2)cc1` here?
Answer: The Potency was “inactive”.

Question: For `Cc1nn(-c2ccccc2)c(CC(C)(C)C(=O)O)c1C(=O)O`, which Potency is on record?
Answer: Its Potency is inconclusive: 11.2 µM [activator, partial curve, poor fit].

Question: With `CCCCOC(=O)c1c(C)oc2c1cc(NS(=O)(=O)c1cc(OC)ccc1OC)c1ccccc12` as the compound, how does the Potency read?
Answer: The Potency was inconclusive: 17.8 µM [inhibitor, partial curve, poor fit].

Question: Which Potency does the source give for `CCN(Cc1ccccc1)S(=O)(=O)c1cc(Br)cc2c1N(C(=O)C1CC1)CC2` here?
Answer: Its Potency is inconclusive: 0.562 µM [activator, full curve, poor fit].

Question: Which Potency does the source give for `COc1ccc(NC(=O)COc2cccc(C(F)(F)F)c2)cn1` here?
Answer: The Potency was inconclusive: 31.6 µM [activator, single point].

Question: Which Potency does the source give for `O=C(CN1C2=NCCCN2c2ccccc21)c1ccc(Br)s1` here?
Answer: Its Potency is inconclusive: 11.2 µM [inhibitor, partial curve, poor fit].

Question: Which Potency does the source give for `N#C/C(=C\c1ccccc1C(=O)O)c1nc2ccccc2[nH]1` here?
Answer: Its Potency is inconclusive: 1.26 µM [activator, partial curve, poor fit].

Question: Which Potency does the source give for `O=C(Nc1ccc(Cl)cn1)Nc1ccccc1F` here?
Answer: The Potency was inconclusive: 5.17 µM [activator, single point].

Question: For `Cc1cccc(C(=O)Nc2ccc3c(c2)ncn3C)c1`, which Potency is on record?
Answer: The Potency was inconclusive: 1.12 µM [activator, partial curve, poor fit].

Question: With `O=C(NCc1ccc2[nH]c3c(c2c1)CCCC3)N1CCOCC1` as the compound, how does the Potency read?
Answer: The Potency was “inactive”.

Question: Which Potency does the source give for `COc1ccc(NC(=O)CNC(=O)Cn2c(C)cc3ccccc3c2=O)c(OC)c1` here?
Answer: Its Potency is inconclusive: 3.98 µM [activator, single point].

Question: With `Cc1ccc(S(=O)(=O)N(CC(=O)N2CCc3ccccc3C2)c2cccc(Cl)c2)cc1` as the compound, how does the Potency read?
Answer: The Potency was inconclusive: 35.5 µM [inhibitor, single point].

Question: With `COc1cc2c(cc1OC)[C@@H]1O[C@](CCCCN3C(=O)c4ccccc4C3=O)(C2)Oc2c1c(=O)oc1ccccc21` as the compound, how does the Potency read?
Answer: The Potency was “inactive”.

Question: Which Potency does the source give for `COc1ccc(C2NCCc3c2[nH]c2ccccc32)cc1CSc1nc2ccccc2s1` (centres undefined) here?
Answer: Its Potency is inconclusive: 12.6 µM [inhibitor, single point].

Question: For `Cc1cccc(OCC(=O)NCc2cc(C)nc3ccccc23)c1`, which Potency is on record?
Answer: The Potency was “inactive”.

Question: For `CCCCSc1nc2sc3c(c2c(=O)n1-c1ccccc1C)CC(C)(C)OC3`, which Potency is on record?
Answer: The Potency was “inactive”.

Question: With `O=C(OCC(=O)N1CCCc2ccccc21)C1CCN(S(=O)(=O)c2cccs2)CC1` as the compound, how does the Potency read?
Answer: Its Potency is inconclusive: 3.98 µM [inhibitor, single point].

Question: With `CCC(C)NCCOCCOc1ccc(Cl)c(C)c1C` (centres undefined) as the compound, how does the Potency read?
Answer: The Potency was inconclusive: 18.4 µM [inhibitor, partial curve, poor fit].
